# Patent US20150133390A1, “Identification of New Therapeutic Uses for Known Therapeutic Agents” (The Board of Trustees of the Leland Stanford Junior …, priority 2012, published 2015)
# Assays:
# [1] = tested on: graft infiltrating cells in cardiac allograft; assay: Graft histology / immunohistochemistry of infiltrating cells at POD 7; type: in vivo, mouse; conditions: POD 7, compared to treatment with cyclosporine (p>0.05)
# Description: (§1) FVB donor hearts were implanted into the abdomen of C57BL/6 WT mice representing a complete MHC mismatch, as described previously. Animals were divided into three treatment groups (Atorvastatin, Dasatinib, and Cyclosporine) and one non-treated control group, each consisting of 6 animals. Animal activity, body weight and graft viability (abdominal palpation) were assessed daily.
# (§2) Atorvastatin (75 mg/kg body weight/day) and Dasatinib (25 mg/kg body weight/day) were administered daily by oral gavages, Cyclosporine (20 mg/kg body weight/day) was administered daily intraperitoneally. Before oral gavages of Atorvastatin and Dasatinib, aliquots were mixed thoroughly. Unused formulations were discarded. Treatment started the day prior to transplantation and lasted until the day before sacrifice at post operation day 7 by exsanguination. Grafts were harvested and divided into three equal parts for downstream analyses.
# One third of the explanted allograft heart (POD7) was immediately fixed in […] buffered formalin, embedded in paraffin and subsequently stained with hematoxylin and eosin for histological assessment of tissue according to standard protocols. Pictures of the graft tissue were taken at 10× magnification using a Nikon E600 light microscope (Nikon Instruments Inc., Melville, N.Y.) and Spot V4.6 imaging software (Spot Imaging, Sterling Heights, Mich.).
# [2] = tested on: FVB donor hearts implanted into C57BL/6 WT mice (cardiac allograft); assay: Graft survival in murine heterotopic cardiac transplant model of acute rejection; type: in vivo, mouse; conditions: Cox-proportional hazard analysis, treated compared to untreated AR
# Description: as §1, §2
# For survival study, another group of 6 mice for each treatment (total 18 mice for Cyclosporine, Atorvastatin, and Dasatinib) and 6 mice for untreated AR group were used using the same protocol described above. Graft viability (abdominal palpation) were assessed daily for these animals until post operation day 30.
# [3] = tested on: CXCL10; conditions: patients with Crohn's disease, cited from earlier work
compound,measurement,setting,value
CC(C)c1c(C(=O)Nc2ccccc2)c(-c2ccccc2)c(-c2ccc(F)cc2)n1CC[C@@H](O)C[C@@H](O)CC(=O)O [atorvastatin],number of infiltrating cells (immunohistochemistry) relative to cyclosporine,[1],equivalent
same,hazard ratio for graft survival,[2],36.33
same,other chemokines and cytokines in plasma,[3]; nine chemokines and four endothelial cytokines investigated,did not affect
same,CXCL10 plasma levels,"[3]; Grip and Janciauskiene, 2009",reduced
